# Cleaved PARP in drug-treated melanoma cells

Values as published with doi:10.1371/journal.pone.0140310, rounded.

Compounds and concentrations:
GW0742: Cc1cc(SCc2sc(-c3ccc(C(F)(F)F)c(F)c3)nc2C)ccc1OCC(=O)O at 10 µM
ENMD-2076: Cc1cc(Nc2cc(N3CCN(C)CC3)nc(/C=C/c3ccccc3)n2)n[nH]1 at 0.2 µM
midostaurin: CO[C@@H]1[C@H](N(C)C(=O)c2ccccc2)C[C@H]2O[C@]1(C)n1c3ccccc3c3c4c(c5c6ccccc6n2c5c31)C(=O)NC4 at 0.4 µM
L-779450: Oc1cc(-c2nc(-c3ccccc3)[nH]c2-c2ccncc2)ccc1Cl at 1 µM
U73122: COc1ccc2c(c1)CCC1C2CCC2(C)C(NCCCCCCN3C(=O)C=CC3=O)CCC12 (centres undefined) at 2 µM
sunitinib: CCN(CC)CCNC(=O)c1c(C)[nH]c(/C=C2\C(=O)Nc3ccc(F)cc32)c1C at 2 µM
BI-D1870: CC(C)CCN1c2nc(Nc3cc(F)c(O)c(F)c3)ncc2N(C)C(=O)C1C (centres undefined) at 1 µM

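Human melanoma cells were exposed to a pair of drugs for 72 h in 1,536-well plates and read by automated microscopy after fixing and staining. Each value is the cleaved-PARP-positive fraction of nuclei relative to DMSO-treated wells, in %, so that 100 equals the control and higher values mean more apoptosis. Every drug was used at one fixed concentration, the higher of two screened. The file gives one value for each pair and line, without errors, so small differences may be noise. Basal and induced levels differ widely between cell lines.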
This is part of the screen, not chosen by result.
A dash means that no value is listed here.

| Drugs | WM1745 | IST-MEL1 | WM3526 | UACC-62 | RPMI-7951 | COLO 800 | C32 | 501mel | G-361 | MEL-HO |
|---|---|---|---|---|---|---|---|---|---|---|
| midostaurin + BI-D1870 | 288 | 72.8 | 252 | 118 | 436 | 157 | 105 | 133 | 180 | 105 |
| L-779450 + sunitinib | - | 159 | 1300 | 459 | 180 | 203 | 346 | 353 | 481 | 146 |
| sunitinib + U73122 | - | 138 | 196 | 157 | 442 | 137 | 174 | 196 | 226 | 91.6 |
| GW0742 + U73122 | 202 | 43.3 | 61.1 | 54.4 | 429 | 108 | 109 | 111 | 50.5 | 44.7 |
| BI-D1870 + L-779450 | 177 | 147 | 238 | 300 | 94.7 | 83.1 | 114 | 154 | 57.6 | 128 |
| U73122 + L-779450 | 152 | 53.5 | 268 | 576 | 308 | 115 | 144 | 80.2 | 371 | 119 |
| L-779450 + GW0742 | 163 | 91.0 | 136 | 878 | 125 | 68.2 | 107 | 86.6 | 132 | 74.2 |
| GW0742 + sunitinib | - | 115 | 235 | 160 | 113 | 541 | 87.4 | 240 | 89.6 | 145 |
| U73122 + midostaurin | 278 | 141 | 302 | 292 | 287 | 190 | 165 | 104 | 269 | 110 |
| BI-D1870 + sunitinib | - | 92.4 | 226 | 230 | 265 | 172 | 94.7 | 1110 | 76.9 | 246 |
| U73122 + BI-D1870 | 96.8 | 68.8 | 113 | 181 | 75.5 | 176 | 114 | 298 | 97.6 | 118 |
| L-779450 + midostaurin | 278 | 136 | 172 | 234 | 177 | 92.1 | 146 | 151 | 337 | 35.0 |
| GW0742 + ENMD-2076 | - | 49.1 | 121 | 136 | 61.0 | 37.0 | 95.3 | 91.4 | 44.4 | 140 |
| midostaurin + sunitinib | 326 | 118 | 477 | 121 | 185 | 290 | 79.2 | - | 181 | 38.1 |
| GW0742 + midostaurin | 348 | 84.1 | 412 | 350 | 227 | 110 | 132 | 135 | 174 | 137 |
| BI-D1870 + ENMD-2076 | - | 94.3 | 59.4 | 167 | 90.8 | 292 | 180 | 107 | 82.2 | 101 |
| midostaurin + ENMD-2076 | 223 | 125 | 74.1 | 172 | 104 | 142 | 314 | - | 191 | 84.3 |
| GW0742 + BI-D1870 | 105 | 149 | 167 | 42.5 | 67.5 | 275 | 97.7 | 124 | 147 | 55.0 |

Repeated from the top, 2 entries:

Drugs,WM1745,IST-MEL1,WM3526,UACC-62,RPMI-7951,COLO 800,C32,501mel,G-361,MEL-HO
midostaurin + BI-D1870,288,72.8,252,118,436,157,105,133,180,105
L-779450 + sunitinib,-,159,1300,459,180,203,346,353,481,146